These are yes or no findings as the source states them, for the method shown. Binding seen in cells or lysates may run through a third protein. Some results given as binding are weak or reduced against the parent protein; the word gives no strength.
Columns and labels:
Test in all cases: co-IP; total protein extract of SIM2 A6 mES cells (26 h without tetracycline); lysis buffer 50mM Hepes pH 8, 200mM NaCl, 0.1mM EDTA, 0.5% NP-40, 10% glycerol; immunoprecipitation overnight at 4°C with antibodies against the endogenous factor on protein G Dynabeads; washes in 50mM TrisHCl pH 8, 250mM NaCl, 1% Triton X-100; western blot with anti-Flag-HRP; in duplicate
[1] = target: KLF4 (endogenous) (mouse (endogenous in mES cells)) (UniProt Q60793)
[2] = target: T1, NANOG (endogenous) (mouse (endogenous in mES cells)) (UniProt Q80Z64)
T1 sequence: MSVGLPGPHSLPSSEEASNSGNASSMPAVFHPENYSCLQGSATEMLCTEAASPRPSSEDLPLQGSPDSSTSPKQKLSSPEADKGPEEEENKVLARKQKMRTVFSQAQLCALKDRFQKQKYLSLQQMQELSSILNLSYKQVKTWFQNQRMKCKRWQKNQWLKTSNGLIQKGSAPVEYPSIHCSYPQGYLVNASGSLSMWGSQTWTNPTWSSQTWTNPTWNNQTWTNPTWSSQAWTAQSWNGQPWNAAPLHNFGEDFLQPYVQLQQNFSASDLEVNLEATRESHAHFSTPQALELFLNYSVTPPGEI

Chains of the proteins cited; added tags and fusions are not shown.
UniProt Q60793: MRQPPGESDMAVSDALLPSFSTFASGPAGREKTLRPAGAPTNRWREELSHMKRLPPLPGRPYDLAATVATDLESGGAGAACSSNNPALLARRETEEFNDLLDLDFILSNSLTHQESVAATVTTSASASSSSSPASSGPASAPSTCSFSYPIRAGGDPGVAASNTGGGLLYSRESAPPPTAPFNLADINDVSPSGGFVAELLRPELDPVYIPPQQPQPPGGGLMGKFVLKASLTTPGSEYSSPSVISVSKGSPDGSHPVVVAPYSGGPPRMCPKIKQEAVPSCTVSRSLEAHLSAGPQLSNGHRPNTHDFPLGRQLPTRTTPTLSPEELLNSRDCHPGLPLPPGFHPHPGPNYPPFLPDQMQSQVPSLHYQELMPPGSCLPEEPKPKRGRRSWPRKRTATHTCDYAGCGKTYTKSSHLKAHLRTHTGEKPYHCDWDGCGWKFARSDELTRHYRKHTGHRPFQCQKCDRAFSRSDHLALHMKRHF
UniProt P20263: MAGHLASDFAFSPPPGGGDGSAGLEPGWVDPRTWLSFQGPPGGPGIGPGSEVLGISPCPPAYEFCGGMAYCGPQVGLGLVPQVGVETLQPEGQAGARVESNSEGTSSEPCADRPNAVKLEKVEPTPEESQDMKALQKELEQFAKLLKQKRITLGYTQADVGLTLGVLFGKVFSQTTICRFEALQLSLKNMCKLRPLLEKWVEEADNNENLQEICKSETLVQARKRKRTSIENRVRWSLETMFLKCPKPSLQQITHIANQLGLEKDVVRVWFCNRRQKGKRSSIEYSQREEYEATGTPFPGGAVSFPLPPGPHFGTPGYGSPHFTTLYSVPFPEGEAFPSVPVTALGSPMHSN
UniProt P48432: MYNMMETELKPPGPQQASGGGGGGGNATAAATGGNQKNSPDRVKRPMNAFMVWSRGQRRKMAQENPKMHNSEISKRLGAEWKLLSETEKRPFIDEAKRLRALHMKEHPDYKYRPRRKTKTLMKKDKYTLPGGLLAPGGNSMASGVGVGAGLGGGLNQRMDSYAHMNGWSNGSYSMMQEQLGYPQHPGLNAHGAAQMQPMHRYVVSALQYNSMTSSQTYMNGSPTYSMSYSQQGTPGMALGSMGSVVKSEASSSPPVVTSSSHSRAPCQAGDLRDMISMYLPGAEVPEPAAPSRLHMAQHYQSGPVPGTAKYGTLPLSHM
UniProt Q61079: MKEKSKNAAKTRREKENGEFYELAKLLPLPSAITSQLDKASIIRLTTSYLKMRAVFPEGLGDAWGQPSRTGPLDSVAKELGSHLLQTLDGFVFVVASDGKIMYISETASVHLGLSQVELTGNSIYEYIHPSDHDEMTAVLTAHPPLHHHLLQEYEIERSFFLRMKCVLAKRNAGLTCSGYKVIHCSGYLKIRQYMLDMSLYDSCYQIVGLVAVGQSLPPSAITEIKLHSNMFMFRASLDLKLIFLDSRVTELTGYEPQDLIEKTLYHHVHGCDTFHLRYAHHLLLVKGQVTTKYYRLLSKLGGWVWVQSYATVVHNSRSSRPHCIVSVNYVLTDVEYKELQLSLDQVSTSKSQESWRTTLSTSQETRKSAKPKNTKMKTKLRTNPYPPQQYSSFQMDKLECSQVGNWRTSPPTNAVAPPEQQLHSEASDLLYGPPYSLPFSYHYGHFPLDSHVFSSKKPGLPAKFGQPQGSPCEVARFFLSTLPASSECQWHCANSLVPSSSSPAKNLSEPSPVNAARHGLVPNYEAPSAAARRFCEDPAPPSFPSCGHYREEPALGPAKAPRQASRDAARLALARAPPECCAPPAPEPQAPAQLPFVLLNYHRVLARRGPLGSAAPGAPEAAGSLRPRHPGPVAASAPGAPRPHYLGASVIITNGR

[3] = target: OCT4 (Pou5f1) (endogenous) (mouse (endogenous in mES cells)) (UniProt P20263)
[4] = target: SOX2 (endogenous) (mouse (endogenous in mES cells)) (UniProt P48432)

binding [1]: binds
binding [2]: binds
binding [3]: binds
binding [4]: binds
Substance: SIM2-FLAG (Flag-tagged mouse Single-minded 2) (from UniProt Q61079 1-657)

From publication PMC4425456
